PubChem BioAssay AID1159578 – Peter MacCallum Cancer Centre – 2015
Screen: 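Knock-downs that alter how fast lymphatic endothelial cells migrate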 (primary screen). Cell system: human lymphatic endothelial cells. Reagents: siRNA pool against human genes, 40 nM. Duration: 48 h after transfection. Detection: 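High-content imaging of dye-stained cells in a scratch assay measures filled wound area and nuclei per well; duplicate means given as ratio to mock and robust z-score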. Scale: migration robust z-score: higher = faster migration into the scratch; migration relative to mock: higher = more scratch area covered than mock; nuclei per well: higher = more cells in the well. Call rule: 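Pools averaging fewer than 3300 nuclei are never called; remaining pools count as changed when migration robust z lies outside -2 to 2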. Calls: active = migration changed; inactive = no migration change, or too few cells.
Here is one part, drawn at random, of about 18,000 reagents. About 1,030 of them (5.7%) count as active. 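Inactive calls also include pools with fewer than 3300 nuclei, whose migration was not assessed.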 Raw values vary from plate to plate and are shown uncorrected.

gene	migration robust z-score	migration class with cell-count check	migration relative to mock	nuclei per well, duplicate mean	Outcome
IL11RA (interleukin 11 receptor subunit alpha)	0.13	migration z between -2 and 2; enough cells	0.83	6842	inactive
DGAT2L6 (diacylglycerol O-acyltransferase 2 like 6)	-0.4	migration z between -2 and 2; enough cells	0.78	5910	inactive
NLK (nemo like kinase)	-0.96	migration z between -2 and 2; enough cells	0.62	4202	inactive
MBTPS2 (membrane bound transcription factor peptidase, site 2)	-0.34	migration z between -2 and 2; enough cells	0.74	5217	inactive
PRUNE2 (prune homolog 2 with BCH domain)	-0.13	migration z between -2 and 2; enough cells	0.86	6131	inactive
CCN6 (cellular communication network factor 6)	-0.73	migration z between -2 and 2; enough cells	0.67	6066	inactive
MPP1 (MAGUK p55 scaffold protein 1)	0.83	migration z between -2 and 2; enough cells	0.97	4372	inactive
DMRT2 (doublesex and mab-3 related transcription factor 2)	-0.57	migration z between -2 and 2; enough cells	0.7	5000	inactive
ZNF296 (zinc finger protein 296)	0.26	migration z between -2 and 2; enough cells	0.95	5773	inactive
DCUN1D4 (defective in cullin neddylation 1 domain containing 4)	1.45	migration z between -2 and 2; enough cells	1.08	5220	inactive
FAT2 (FAT atypical cadherin 2)	-0.11	migration z between -2 and 2; enough cells	0.86	4570	inactive
OCRL (OCRL inositol polyphosphate-5-phosphatase)	0.44	migration z between -2 and 2; enough cells	0.89	5426	inactive
IRX3 (iroquois homeobox 3)	1.93	migration z between -2 and 2; enough cells	1.38	6118	inactive
NODAL (nodal growth differentiation factor)	-4.53	migration z below -2; enough cells	-0.28	4152	active
L3MBTL4 (L3MBTL histone methyl-lysine binding protein 4)	0.46	migration z between -2 and 2; enough cells	1	6130	inactive
PLCL1 (phospholipase C like 1 (inactive))	2.08	migration z above 2; enough cells	1.21	6324	active
ZNF532 (zinc finger protein 532)	-0.64	migration z between -2 and 2; enough cells	0.72	5586	inactive
NHEJ1 (non-homologous end joining factor 1)	0.31	migration z between -2 and 2; enough cells	0.86	6344	inactive
CMTM7 (CKLF like MARVEL transmembrane domain containing 7)	-1.58	migration z between -2 and 2; enough cells	0.47	4748	inactive
ADCY3 (adenylate cyclase 3)	0.26	migration z between -2 and 2; enough cells	0.86	6336	inactive

Called active, among the entries above:
gene	migration robust z-score	migration class with cell-count check	migration relative to mock	nuclei per well, duplicate mean	Outcome
NODAL (nodal growth differentiation factor)	-4.53	migration z below -2; enough cells	-0.28	4152	active
PLCL1 (phospholipase C like 1 (inactive))	2.08	migration z above 2; enough cells	1.21	6324	active

The listing continues.
gene	migration robust z-score	migration class with cell-count check	migration relative to mock	nuclei per well, duplicate mean	Outcome
ZC3HAV1L (ZC3HAV1 like)	0.32	migration z between -2 and 2; enough cells	0.97	6630	inactive
LRRC61 (leucine rich repeat containing 61)	-1.43	migration z between -2 and 2; enough cells	0.51	5445	inactive
CNOT3 (CCR4-NOT transcription complex subunit 3)	0.97	migration z between -2 and 2; enough cells	1.14	5928	inactive
CSTF1 (cleavage stimulation factor subunit 1)	0.76	migration z between -2 and 2; enough cells	1.08	5945	inactive
CDCA4 (cell division cycle associated 4)	0.22	migration z between -2 and 2; enough cells	0.94	6040	inactive
HMHB1 (histocompatibility minor HB-1)	0.68	migration z between -2 and 2; enough cells	1.06	5818	inactive
EYS (EGF-like photoreceptor maintenance factor)	-0.6	migration z between -2 and 2; enough cells	0.73	5062	inactive
DNAAF4 (dynein axonemal assembly factor 4)	0.66	migration z between -2 and 2; enough cells	1.06	4998	inactive
FADS2 (fatty acid desaturase 2)	-0.36	migration z between -2 and 2; enough cells	0.74	4144	inactive
KISS1R (KISS1 receptor)	0.6	migration z between -2 and 2; enough cells	0.92	6430	inactive
CEP70 (centrosomal protein 70)	-1.63	under 3300 nuclei; migration not judged	0.47	3223	inactive
MESP1 (mesoderm posterior bHLH transcription factor 1)	-0.2	migration z between -2 and 2; enough cells	0.84	5458	inactive
SERPINA9 (serpin family A member 9)	0.94	migration z between -2 and 2; enough cells	1.13	6031	inactive
ADGRG6 (adhesion G protein-coupled receptor G6)	-0.05	migration z between -2 and 2; enough cells	0.8	5633	inactive
MAN2B1 (mannosidase alpha class 2B member 1)	-0.91	migration z between -2 and 2; enough cells	0.63	5522	inactive
STOM (stomatin)	0.4	migration z between -2 and 2; enough cells	0.98	5998	inactive
PDE7B (phosphodiesterase 7B)	0.83	migration z between -2 and 2; enough cells	0.96	6578	inactive
CIMIP5 (ciliary microtubule inner protein 5)	0.12	migration z between -2 and 2; enough cells	0.92	6064	inactive
RNF114 (ring finger protein 114)	0.05	migration z between -2 and 2; enough cells	0.82	5205	inactive
